# Measurements taken from the supplement of paper PMC8728848.
# This is one part of the list.
# B1: BabA (Helicobacter pylori), O52269_HELPY (protein)
# chain: AEDDGFYMSAGYQIGEAAQMVKNTKGIQELSDNYENLSNLLTRYSTLNTLIKLSADPSAVNAARENLGASAKNLIGDTKNSPAYQAVLLAINAAVGFWNVVGYVTQCGGNANGQKSTSSTTIFNNEPGYRSTSITCSLNGHMPGYYGPMSIENFKKLNEAYQILQTALKNGLPALKENNGTVNVTYSYTCSGEGNDNCSLQTTGVTNQNNGTKTETQTIDGKSVTTTISSKVVDSQ
# Legend:
# Assay in all cases: glycan array binding signal (z-score within array); higher = stronger binding
# Settings in all cases: glycan notation: IUPAC condensed, linker removed
# [1] = target: Man(a1-6)Man
# Summary of the method: (§1)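 The binding signal is a Z-score computed within each array. Data were drawn from 3228 arrays in the Consortium for Functional Glycomics database, restricted to those with a known protein sequence. Scores were averaged over arrays of the same protein sequence at different concentrations or buffers, and over linkers, and negative values can be taken as non-binding.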
# [2] = target: Man(b1-4)GlcNAc
# Summary of the method: as §1
# [3] = target: MurNAc(b1-4)GlcNAc
# Summary of the method: as §1
# [4] = target: Neu5Ac(a2-3)Gal
# Summary of the method: as §1
# [5] = target: Neu5Ac(a2-3)Gal(b1-3)GalNAc
# Summary of the method: as §1
# [6] = target: Neu5Ac(a2-3)Gal(b1-3)GalNAc(b1-3)Gal(a1-4)Gal(b1-4)Glc
# Summary of the method: as §1
# [7] = target: Neu5Ac(a2-3)Gal(b1-3)GalNAc(b1-3)Gal(b1-4)GlcNAc
# Summary of the method: as §1
# [8] = target: Neu5Ac(a2-3)Gal(b1-3)GalNAc(b1-4)Gal(b1-4)Glc
# Summary of the method: as §1
# [9] = target: Neu5Ac(a2-3)Gal(b1-3)GalNAc(b1-4)[Neu5Ac(a2-3)]Gal(b1-4)Glc
# Summary of the method: as §1
# [10] = target: Neu5Ac(a2-3)Gal(b1-3)GalNAc(b1-4)[Neu5Ac(a2-8)Neu5Ac(a2-3)]Gal(b1-4)Glc
# Summary of the method: as §1
# [11] = target: Neu5Ac(a2-3)Gal(b1-3)GalNAc6S
# Summary of the method: as §1
# [12] = target: Neu5Ac(a2-3)Gal(b1-3)GlcNAc
# Summary of the method: as §1
# [13] = target: Neu5Ac(a2-3)Gal(b1-3)GlcNAc(b1-2)Man
# Summary of the method: as §1
# [14] = target: Neu5Ac(a2-3)Gal(b1-3)GlcNAc(b1-2)Man(a1-3)[GlcNAc(b1-4)][Neu5Ac(a2-3)Gal(b1-3)GlcNAc(b1-2)Man(a1-6)]Man(b1-4)GlcNAc(b1-4)GlcNAc
# Summary of the method: as §1
# [15] = target: Neu5Ac(a2-3)Gal(b1-3)GlcNAc(b1-2)Man(a1-3)[Neu5Ac(a2-3)Gal(b1-3)GlcNAc(b1-2)Man(a1-6)]Man(b1-4)GlcNAc(b1-4)GlcNAc
# Summary of the method: as §1
# [16] = target: Neu5Ac(a2-3)Gal(b1-3)GlcNAc(b1-2)[Neu5Ac(a2-3)Gal(b1-3)GlcNAc(b1-4)]Man(a1-6)[Neu5Ac(a2-3)Gal(b1-3)GlcNAc(b1-2)Man(a1-3)]Man(b1-4)GlcNAc(b1-4)GlcNAc
# Summary of the method: as §1
# [17] = target: Neu5Ac(a2-3)Gal(b1-3)GlcNAc(b1-3)Gal(b1-3)GlcNAc
# Summary of the method: as §1
# [18] = target: Neu5Ac(a2-3)Gal(b1-3)GlcNAc(b1-3)Gal(b1-4)GlcNAc
# Summary of the method: as §1
# [19] = target: Neu5Ac(a2-3)Gal(b1-3)GlcNAc(b1-3)GalNAc
# Summary of the method: as §1
# [20] = target: Neu5Ac(a2-3)Gal(b1-3)GlcNAc(b1-6)GalNAc
# Summary of the method: as §1
# [21] = target: Neu5Ac(a2-3)Gal(b1-3)GlcNAc6S
# Summary of the method: as §1
# [22] = target: Neu5Ac(a2-3)Gal(b1-3)[Fuc(a1-4)]GlcNAc
# Summary of the method: as §1
# [23] = target: Neu5Ac(a2-3)Gal(b1-3)[Fuc(a1-4)]GlcNAc(b1-3)Gal(b1-3)[Fuc(a1-4)]GlcNAc
# Summary of the method: as §1
# [24] = target: Neu5Ac(a2-3)Gal(b1-3)[Fuc(a1-4)]GlcNAc(b1-3)Gal(b1-4)[Fuc(a1-3)]GlcNAc
# Summary of the method: as §1
# [25] = target: Neu5Ac(a2-3)Gal(b1-3)[GlcNAc(b1-6)]GalNAc
# Summary of the method: as §1
# [26] = target: Neu5Ac(a2-3)Gal(b1-3)[Neu5Ac(a2-3)Gal(b1-4)]GlcNAc
# Summary of the method: as §1
# [27] = target: Neu5Ac(a2-3)Gal(b1-3)[Neu5Ac(a2-6)]GalNAc
# Summary of the method: as §1
# [28] = target: Neu5Ac(a2-3)Gal(b1-3)[Neu5Ac(a2-6)]GlcNAc(b1-3)[Fuc(a1-3)[Gal(b1-4)]GlcNAc(b1-6)]Gal(b1-4)Glc
# Summary of the method: as §1
# [29] = target: Neu5Ac(a2-3)Gal(b1-3)]Neu5Ac(a2-3)Gal(b1-4)]GlcNAc
# Summary of the method: as §1
# [30] = target: Neu5Ac(a2-3)Gal(b1-4)Glc
# Summary of the method: as §1
# [31] = target: Neu5Ac(a2-3)Gal(b1-4)GlcNAc
# Summary of the method: as §1
# [32] = target: Neu5Ac(a2-3)Gal(b1-4)GlcNAc(b1-2)Man
# Summary of the method: as §1
# [33] = target: Neu5Ac(a2-3)Gal(b1-4)GlcNAc(b1-2)Man(a1-3)[GlcNAc(b1-2)Man(b1-4)GlcNAc(b1-2)Man(a1-6)]Man(b1-4)GlcNAc(b1-4)GlcNAc
# Summary of the method: as §1
# [34] = target: Neu5Ac(a2-3)Gal(b1-4)GlcNAc(b1-2)Man(a1-3)[GlcNAc(b1-4)][Neu5Ac(a2-3)Gal(b1-4)GlcNAc(b1-2)Man(a1-6)]Man(b1-4)GlcNAc(b1-4)GlcNAc
# Summary of the method: as §1
# [35] = target: Neu5Ac(a2-3)Gal(b1-4)GlcNAc(b1-2)Man(a1-3)[Neu5Ac(a2-3)Gal(b1-4)GlcNAc(b1-2)Man(a1-6)]Man(b1-4)GlcNAc(b1-4)GlcNAc
# Summary of the method: as §1
# [36] = target: Neu5Ac(a2-3)Gal(b1-4)GlcNAc(b1-2)Man(a1-3)[Neu5Ac(a2-3)Gal(b1-4)GlcNAc(b1-2)Man(a1-6)]Man(b1-4)GlcNAc(b1-4)[Fuc(a1-6)]GlcNAc
# Summary of the method: as §1
binder,measurement,setting,value
B1,glycan array binding signal (z-score),[1],0.859
same,glycan array binding signal (z-score),[2],0.169
same,glycan array binding signal (z-score),[3],-0.046
same,glycan array binding signal (z-score),[4],0.143
same,glycan array binding signal (z-score),[5],0.087
same,glycan array binding signal (z-score),[6],-0.606
same,glycan array binding signal (z-score),[7],-0.872
same,glycan array binding signal (z-score),[8],-0.537
same,glycan array binding signal (z-score),[9],-0.458
same,glycan array binding signal (z-score),[10],-0.528
same,glycan array binding signal (z-score),[11],0.26
same,glycan array binding signal (z-score),[12],0.201
same,glycan array binding signal (z-score),[13],-0.7
same,glycan array binding signal (z-score),[14],-0.582
same,glycan array binding signal (z-score),[15],0.917
same,glycan array binding signal (z-score),[16],0.217
same,glycan array binding signal (z-score),[17],-0.829
same,glycan array binding signal (z-score),[18],-0.773
same,glycan array binding signal (z-score),[19],-0.5
same,glycan array binding signal (z-score),[20],-0.191
same,glycan array binding signal (z-score),[21],1.11
same,glycan array binding signal (z-score),[22],-0.469
same,glycan array binding signal (z-score),[23],-0.004
same,glycan array binding signal (z-score),[24],0.749
same,glycan array binding signal (z-score),[25],0.008
same,glycan array binding signal (z-score),[26],-0.816
same,glycan array binding signal (z-score),[27],0.266
same,glycan array binding signal (z-score),[28],-0.092
same,glycan array binding signal (z-score),[29],0.508
same,glycan array binding signal (z-score),[30],0.807
same,glycan array binding signal (z-score),[31],-0.136
same,glycan array binding signal (z-score),[32],0.699
same,glycan array binding signal (z-score),[33],-1.52
same,glycan array binding signal (z-score),[34],-0.637
same,glycan array binding signal (z-score),[35],-0.555
same,glycan array binding signal (z-score),[36],0.726
